From publication PMC7471912
No constants are given. Whether binding was seen depends on the method and setting. Binding seen in cells or lysates may run through a third protein. Some entries that bind do so weakly or less than the wild type.

Chains of the proteins cited; added tags and fusions are not shown.
UniProt Q16665: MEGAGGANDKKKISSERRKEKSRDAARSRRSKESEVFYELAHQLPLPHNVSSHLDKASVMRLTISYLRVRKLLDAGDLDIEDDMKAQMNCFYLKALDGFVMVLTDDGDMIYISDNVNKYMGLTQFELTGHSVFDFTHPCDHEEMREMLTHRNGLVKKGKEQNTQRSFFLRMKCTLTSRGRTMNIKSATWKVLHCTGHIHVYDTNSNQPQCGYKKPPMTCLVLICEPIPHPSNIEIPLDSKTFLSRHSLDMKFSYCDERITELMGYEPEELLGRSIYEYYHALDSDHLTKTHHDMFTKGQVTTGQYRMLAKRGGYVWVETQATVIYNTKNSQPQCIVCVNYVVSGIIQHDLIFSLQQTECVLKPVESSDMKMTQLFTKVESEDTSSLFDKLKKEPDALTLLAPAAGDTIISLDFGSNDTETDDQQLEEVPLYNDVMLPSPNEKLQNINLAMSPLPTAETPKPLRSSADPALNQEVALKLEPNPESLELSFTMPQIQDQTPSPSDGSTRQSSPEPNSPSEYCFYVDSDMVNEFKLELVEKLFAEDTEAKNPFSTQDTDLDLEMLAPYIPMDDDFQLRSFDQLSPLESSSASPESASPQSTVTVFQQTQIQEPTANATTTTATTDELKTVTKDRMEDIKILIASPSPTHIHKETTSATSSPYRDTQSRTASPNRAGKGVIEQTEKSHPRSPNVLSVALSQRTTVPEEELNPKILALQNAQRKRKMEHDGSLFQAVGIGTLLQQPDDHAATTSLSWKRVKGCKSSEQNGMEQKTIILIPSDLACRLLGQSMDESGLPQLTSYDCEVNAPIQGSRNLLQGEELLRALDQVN
UniProt Q9ULZ3: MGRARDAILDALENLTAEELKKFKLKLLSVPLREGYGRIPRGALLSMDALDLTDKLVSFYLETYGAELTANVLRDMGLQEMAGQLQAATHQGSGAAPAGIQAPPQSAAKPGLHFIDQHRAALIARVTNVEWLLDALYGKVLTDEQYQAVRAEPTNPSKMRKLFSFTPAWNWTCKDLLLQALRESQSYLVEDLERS

Legend:
[1] = biological target: HIF-1α (human (endogenous in SAS)) (UniProt Q16665); assay: co-IP; total cell extracts of SAS_ASC cells under normoxia, immunoprecipitated with anti-HIF-1α, Western blot with anti-HIF-1α and anti-ASC
[2] = biological target: HIF-1α (human (endogenous in SAS)) (UniProt Q16665); assay: co-IP; extracts from cytoplasmic and nuclear fractions of SAS_ASC cells, immunoprecipitated with anti-HIF-1α, Western blot with anti-ASC; HDAC1 as nucleus-specific marker

Apoptosis-associated speck-like protein containing a CARD (from UniProt Q9ULZ3 1-195)
binding [1]: binds | binding [2]: binds
